Source: patent US20220213196A1
No constants are given. Whether binding was seen depends on the method and setting. Some entries that bind do so weakly or less than the wild type.

Biological target: HLA-A*01:01_… (HLA-PEPTIDE target G10), recombinant soluble complex (human) (UniProt P04439)
Assay: tetramer sorting and re-sorting of naive CD8+ T cells, single-cell TCR sequencing

B1: TCR ID #1 (clonotype specific for A*01:01_…) (TCR, V domains shown)
V domain 1: GQQVMQIPQYQHVQEGEDFTTYCNSSTTLSNIQWYKQRPGGHPVFLIQLVKSGEVKKQKRLTFQFGEAKKNSSLHITATQTTDVGTYFCAGPGNTGKLIFGQGTTLQVK
V domain 2: DGGITQSPKYLFRKEGQNVTLSCEQNLNHDAMYWYRQDPGQGLRLIYYSQIVNDFQKGDIAEGYSVSREKKESFPLTVTSAQKNPTAFYLCASSNAGDQPQHFGDGTRLSIL
With B1 the binding was “binds”.
